According to patent publication US20070123452A1, “Method of selecting novel immunosuppressant” (Astellas Pharma Inc., priority 2002, published 2007):
Results are given in words; binding and its absence hold for the method and conditions named. Binding can be weak; no strength is given.

The chains behind the UniProt entries cited, without tags or fusion partners. Where a name states a change or a piece, a line headed by the entry shows the natural chain unless it says otherwise.
UniProt O75376: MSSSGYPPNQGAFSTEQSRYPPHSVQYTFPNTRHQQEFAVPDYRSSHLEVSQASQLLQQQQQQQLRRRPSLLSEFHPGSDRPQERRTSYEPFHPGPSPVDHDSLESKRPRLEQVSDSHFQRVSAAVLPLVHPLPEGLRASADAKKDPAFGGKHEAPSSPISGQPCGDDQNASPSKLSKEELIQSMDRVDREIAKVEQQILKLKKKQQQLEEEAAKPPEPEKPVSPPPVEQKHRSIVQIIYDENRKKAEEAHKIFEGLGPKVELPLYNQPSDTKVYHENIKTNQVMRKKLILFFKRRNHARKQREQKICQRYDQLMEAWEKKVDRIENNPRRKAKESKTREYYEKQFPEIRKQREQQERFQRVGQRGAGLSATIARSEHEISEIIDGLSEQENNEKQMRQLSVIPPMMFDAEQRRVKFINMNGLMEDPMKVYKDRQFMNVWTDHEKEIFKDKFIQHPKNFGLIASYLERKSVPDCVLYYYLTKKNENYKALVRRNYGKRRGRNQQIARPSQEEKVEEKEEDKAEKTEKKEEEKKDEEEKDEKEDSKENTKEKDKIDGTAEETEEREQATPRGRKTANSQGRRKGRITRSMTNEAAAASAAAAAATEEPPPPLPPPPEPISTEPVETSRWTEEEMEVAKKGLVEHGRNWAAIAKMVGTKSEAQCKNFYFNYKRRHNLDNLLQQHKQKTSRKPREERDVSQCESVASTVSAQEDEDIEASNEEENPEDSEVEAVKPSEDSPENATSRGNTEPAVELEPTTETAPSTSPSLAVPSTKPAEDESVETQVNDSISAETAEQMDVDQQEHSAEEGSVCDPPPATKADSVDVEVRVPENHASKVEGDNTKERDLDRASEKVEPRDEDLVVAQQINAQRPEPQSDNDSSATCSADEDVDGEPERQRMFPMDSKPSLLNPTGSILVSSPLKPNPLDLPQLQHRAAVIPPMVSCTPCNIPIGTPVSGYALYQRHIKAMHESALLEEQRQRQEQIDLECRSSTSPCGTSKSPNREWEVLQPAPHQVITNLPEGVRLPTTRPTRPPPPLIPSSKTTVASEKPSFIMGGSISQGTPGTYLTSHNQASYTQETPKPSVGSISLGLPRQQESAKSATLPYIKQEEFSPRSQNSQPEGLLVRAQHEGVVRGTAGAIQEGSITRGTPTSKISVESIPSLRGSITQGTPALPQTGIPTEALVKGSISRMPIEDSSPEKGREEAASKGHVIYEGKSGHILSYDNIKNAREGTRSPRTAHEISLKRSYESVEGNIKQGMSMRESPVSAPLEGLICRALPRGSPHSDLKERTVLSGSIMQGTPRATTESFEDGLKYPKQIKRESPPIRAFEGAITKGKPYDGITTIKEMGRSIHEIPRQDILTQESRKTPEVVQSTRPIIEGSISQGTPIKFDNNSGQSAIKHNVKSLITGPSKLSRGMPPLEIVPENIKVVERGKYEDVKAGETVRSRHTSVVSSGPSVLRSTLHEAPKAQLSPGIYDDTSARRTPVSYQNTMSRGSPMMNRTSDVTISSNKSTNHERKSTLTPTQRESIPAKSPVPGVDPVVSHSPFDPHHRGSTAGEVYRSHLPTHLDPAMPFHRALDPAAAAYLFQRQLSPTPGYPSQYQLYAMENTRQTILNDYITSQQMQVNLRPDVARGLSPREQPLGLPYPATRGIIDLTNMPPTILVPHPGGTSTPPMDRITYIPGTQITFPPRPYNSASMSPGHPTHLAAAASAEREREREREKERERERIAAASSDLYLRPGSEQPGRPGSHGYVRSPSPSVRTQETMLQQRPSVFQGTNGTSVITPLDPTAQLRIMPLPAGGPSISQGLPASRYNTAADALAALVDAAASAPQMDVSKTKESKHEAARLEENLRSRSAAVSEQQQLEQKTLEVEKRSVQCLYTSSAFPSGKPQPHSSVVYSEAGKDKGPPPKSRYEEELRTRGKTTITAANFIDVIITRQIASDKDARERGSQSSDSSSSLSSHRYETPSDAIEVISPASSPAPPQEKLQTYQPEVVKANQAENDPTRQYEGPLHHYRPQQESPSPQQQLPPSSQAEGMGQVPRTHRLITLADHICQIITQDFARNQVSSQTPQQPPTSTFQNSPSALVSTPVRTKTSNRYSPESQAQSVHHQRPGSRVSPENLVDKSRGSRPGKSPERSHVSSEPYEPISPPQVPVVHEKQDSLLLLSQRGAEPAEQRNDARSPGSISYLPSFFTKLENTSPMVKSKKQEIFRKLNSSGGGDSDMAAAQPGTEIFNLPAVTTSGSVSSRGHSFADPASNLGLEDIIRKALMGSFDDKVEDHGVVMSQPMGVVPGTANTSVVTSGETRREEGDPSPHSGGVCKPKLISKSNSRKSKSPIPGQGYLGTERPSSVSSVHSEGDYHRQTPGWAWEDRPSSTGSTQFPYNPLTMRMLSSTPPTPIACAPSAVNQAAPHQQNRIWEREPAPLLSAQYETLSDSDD
UniProt Q8WUI4: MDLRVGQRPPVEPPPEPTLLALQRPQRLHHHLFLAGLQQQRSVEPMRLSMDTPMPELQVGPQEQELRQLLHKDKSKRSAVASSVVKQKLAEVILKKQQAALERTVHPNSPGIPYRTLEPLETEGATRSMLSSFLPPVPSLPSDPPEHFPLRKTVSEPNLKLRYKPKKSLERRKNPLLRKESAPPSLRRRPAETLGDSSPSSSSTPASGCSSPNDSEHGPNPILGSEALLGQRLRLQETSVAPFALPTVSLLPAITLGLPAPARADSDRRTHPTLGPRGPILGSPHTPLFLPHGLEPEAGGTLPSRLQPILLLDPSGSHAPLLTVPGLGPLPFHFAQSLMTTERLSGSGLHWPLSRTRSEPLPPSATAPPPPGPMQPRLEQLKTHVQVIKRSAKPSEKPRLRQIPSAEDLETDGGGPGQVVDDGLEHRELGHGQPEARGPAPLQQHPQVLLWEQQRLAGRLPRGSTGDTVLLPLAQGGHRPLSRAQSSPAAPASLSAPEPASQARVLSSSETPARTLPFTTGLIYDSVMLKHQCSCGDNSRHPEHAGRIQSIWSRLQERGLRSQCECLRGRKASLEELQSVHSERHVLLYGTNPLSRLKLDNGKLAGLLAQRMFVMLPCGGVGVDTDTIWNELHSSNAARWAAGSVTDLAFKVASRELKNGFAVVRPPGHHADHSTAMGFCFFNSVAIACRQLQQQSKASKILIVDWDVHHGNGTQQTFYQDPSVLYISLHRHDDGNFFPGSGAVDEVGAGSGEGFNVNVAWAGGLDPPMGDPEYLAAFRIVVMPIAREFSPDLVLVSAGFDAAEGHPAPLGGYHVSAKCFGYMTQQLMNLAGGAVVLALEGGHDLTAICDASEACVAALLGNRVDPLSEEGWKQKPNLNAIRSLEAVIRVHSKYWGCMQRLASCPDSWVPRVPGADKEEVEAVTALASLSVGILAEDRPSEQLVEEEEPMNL

Target: N-CoR (nuclear receptor corepressor), endogenous protein of the transfected cells (UniProt O75376)
Test: anti-Flag column purification from PEAK Rapid cells, Western blotting

binding: binds
Substance: HDAC7 with a Flag sequence added to the C-terminal (expressed from pEAK-HDAC7, pMH141) (from UniProt Q8WUI4) (enzyme)
